Source: PubChem BioAssay AID652243 (Drosophila RNAi Screening Center, 2013)

Aim: 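Fly regulators of androgen-dependent reporter output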 (primary screen)
Cells: Drosophila S2R+ cells
Reagents: long dsRNA against Drosophila genes
Duration: 72 h (48 h, then 24 h hormone)
Challenge: synthetic androgen R1881 at 10 nM for 24 h
Read-out: 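Firefly light from an androgen-responsive reporter and Renilla control light per well, raw and unnormalised, for each of two replicates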
Reading the numbers: firefly reporter light: higher = more light from androgen-responsive reporter; Renilla control light: higher = more constitutive control signal (cell number, transfection)
Active means: 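Across duplicate plates, a knock-down whose log firefly/Renilla ratio shifted a set fold down or up from the GFP/LacZ control mean was a hit; the downward cut appears as both 1.5 and 3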
Meaning of the calls: active = hit: reporter lowered or raised; inactive = no hit
In all, the deposit lists about 24,000 reagents; shown is a random part of those that have a named target and a result. Of all reagents, 246 (1%) are marked active. 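Plates not normalised; calls are printed but the firefly/Renilla ratio behind them is not deposited; fold cut for lowering reported inconsistently.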 Raw values vary from plate to plate and are shown uncorrected. Not given: the amount of reagent.

Which result is listed for CG32189 [DRSC09511]?
firefly reporter light, replicate 1: 1.47e5; firefly reporter light, replicate 2: 43005; Renilla control light, replicate 1: 2.30e5; Renilla control light, replicate 2: 1.45e5; outcome: inactive

How did the screen score CG32189 [DRSC26756]?
firefly reporter light, replicate 1: 2.85e5; firefly reporter light, replicate 2: 3.32e5; Renilla control light, replicate 1: 5.07e5; Renilla control light, replicate 2: 6.06e5; outcome: inactive

Which result is listed for TfIIFbeta [DRSC16884]?
firefly reporter light, replicate 1: 1.81e5; firefly reporter light, replicate 2: 1.99e5; Renilla control light, replicate 1: 2.96e6; Renilla control light, replicate 2: 2.65e6; outcome: inactive

With TfIIFbeta [DRSC21447], how do the results read?
firefly reporter light, replicate 1: 6.97e5; firefly reporter light, replicate 2: 1.05e6; Renilla control light, replicate 1: 1.40e6; Renilla control light, replicate 2: 2.05e6; outcome: inactive

With TfIIFbeta [DRSC29742], what does the deposit list?
firefly reporter light, replicate 1: 5.49e5; firefly reporter light, replicate 2: 3.56e5; Renilla control light, replicate 1: 1.30e6; Renilla control light, replicate 2: 1.40e6; outcome: inactive

Which result is listed for DCAF12 [DRSC15475]?
firefly reporter light, replicate 1: 48982; firefly reporter light, replicate 2: 36070; Renilla control light, replicate 1: 2.98e5; Renilla control light, replicate 2: 4.02e5; outcome: inactive

For Adk3 [DRSC05917], how do the results read?
firefly reporter light, replicate 1: 9.16e5; firefly reporter light, replicate 2: 3.92e5; Renilla control light, replicate 1: 1.20e6; Renilla control light, replicate 2: 9.73e5; outcome: inactive

For Adk3 [DRSC28006], how do the results read?
firefly reporter light, replicate 1: 4.53e5; firefly reporter light, replicate 2: 3.74e5; Renilla control light, replicate 1: 1.49e6; Renilla control light, replicate 2: 1.31e6; outcome: inactive

Which result is listed for Adk3 [DRSC37040]?
outcome: inactive

With CG13252 [DRSC11700], how do the results read?
firefly reporter light, replicate 1: 1.93e5; firefly reporter light, replicate 2: 2.19e5; Renilla control light, replicate 1: 2.80e6; Renilla control light, replicate 2: 2.92e6; outcome: inactive

For CG13252 [DRSC27577], what does the deposit list?
firefly reporter light, replicate 1: 2.41e5; firefly reporter light, replicate 2: 3.01e5; Renilla control light, replicate 1: 4.48e5; Renilla control light, replicate 2: 6.54e5; outcome: inactive

With eag [DRSC19067], how do the results read?
firefly reporter light, replicate 1: 1.10e6; firefly reporter light, replicate 2: 3.45e5; Renilla control light, replicate 1: 7.58e5; Renilla control light, replicate 2: 2.97e5; outcome: inactive

With eag [DRSC20328], how do the results read?
firefly reporter light, replicate 1: 4.11e5; firefly reporter light, replicate 2: 3.79e5; Renilla control light, replicate 1: 2.37e6; Renilla control light, replicate 2: 3.04e6; outcome: inactive

With eag [DRSC28295], what was measured?
firefly reporter light, replicate 1: 7.20e5; firefly reporter light, replicate 2: 9.41e5; Renilla control light, replicate 1: 9.39e5; Renilla control light, replicate 2: 1.48e6; outcome: inactive

Reprinted from the entries so far, 2 entries:
DCAF12 [DRSC15475] — firefly reporter light, replicate 1: 48982; firefly reporter light, replicate 2: 36070; Renilla control light, replicate 1: 2.98e5; Renilla control light, replicate 2: 4.02e5; outcome: inactive
Adk3 [DRSC05917] — firefly reporter light, replicate 1: 9.16e5; firefly reporter light, replicate 2: 3.92e5; Renilla control light, replicate 1: 1.20e6; Renilla control light, replicate 2: 9.73e5; outcome: inactive
